{"source": "paper PMC4977824", "target": "DB::DLG-1 second PDZ domain (C. elegans)", "assay": "two-hybrid; DB fusions in pGBTK7 and AD fusions in pACT2 co-transformed into yeast strain Y190, X-gal filter assay", "note": "Results are given in words; binding and its absence hold for the method and conditions named. A result given as binding can be weak or reduced; the word gives no strength. Sequences can lack the tags named with a protein."}
{"binder": "AD::ATAD-3 aa388-595 (domain or fragment, UniProt Q20748 388-595) AIHKVFDWASKSRKGLIVFIDEADAFLQKRSKNGMSEDTRAALNAFLFRTGEQSRKFMLVVASNQPEQFDWAVNDRFDQLVEFTLPGMEERERILLQYFNEHIVTPATSGSRSQRLKLDNFDWVAKCNEVAKKTSGMSGRELSKLVIGWQASAYASETGVLTEAIVDRNTADAMVQHEHKMEWLEKEQLKARNQEVKFGTTLKRETAV", "values": [{"measurement": "binding", "result": "binds"}]}
